# Results deposited as PubChem BioAssay AID1259425 (University of Nebraska Medical Center, 2018)
# Test: 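Compare each knockdown with KSR1 silencing using changes in marker transcripts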 (primary screen)
# Cell system: HCT116 human colon cancer cells
# Knock-down reagent: siRNA pool against human genes, 50 nM siRNA
# Detection: 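After 50 nM siRNA pool, branched-DNA assay measures six marker transcripts per well, minus blank, normalised to the geometric mean of two housekeeping transcripts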
# Reading the numbers: BNIP3L mRNA: higher = more BNIP3L transcript after knockdown; NDRG1 mRNA: higher = more NDRG1 transcript after knockdown; BNIP3 mRNA: higher = more BNIP3 transcript after knockdown; ALDOC mRNA: higher = more ALDOC transcript after knockdown; ACSL5 mRNA: higher = more ACSL5 transcript after knockdown
# The deposit covers about 14,000 reagents; shown is an unselected part. Reagents against one gene are numbered here. Reagent sequences are not shown. Not given: the time to read-out.
gene symbol,reagent,"BNIP3L mRNA, set 1","NDRG1 mRNA, set 1","BNIP3 mRNA, set 1","ALDOC mRNA, set 1","ACSL5 mRNA, set 1"
IVD,1,0.102,0.0853,0.288,0.0241,0.0307
ENTR1,1,0.108,0.499,0.32,0.00676,0.282
RIC3,1,0.0937,0.322,0.355,0.0502,0.249
ADGRF1,1,0.133,0.506,0.523,0.0412,0.343
ADGRF1,2,0.11,0.177,0.54,0.0684,0.143
HEATR5A,1,0.123,0.136,0.361,0.0268,0.187
COL8A1,1,0.0455,0.0742,0.227,0.032,0.116
ATP4B,1,0.0889,0.131,0.319,0.0562,0.098
TBCK,1,0.07,0.0398,0.195,0.00285,0.139
SUV39H2,1,0.0804,0.787,0.187,0.0209,0.122
CDKL5,1,0.0911,0.117,0.651,0.0191,0.122
SCG2,1,0.11,0.184,0.407,0.0133,0.419
WWP2,1,0.0813,0.153,0.292,0.0108,0.113
ART3,1,0.165,0.401,0.488,0.0131,0.217
MBNL1,1,0.0899,0.486,0.291,0.0143,0.0359
MTCL1,1,0.136,0.43,0.661,0.0426,0.12
WDR44,1,0.112,0.291,0.308,0.0272,0.322
SPEN,1,0.0524,0.0999,0.209,0.0103,0.135
MTMR1,1,0.092,0.0845,0.224,0.0313,0.149
VPS4A,1,0.0835,0.0299,0.31,0.00946,0.099
HAP1,1,0.119,0.131,0.265,0.0218,0.131
MCTP2,1,0.0908,0.259,0.337,0.0399,0.298
SERPINE1,1,0.048,0.0748,0.225,0.0189,0.0815
TMEM106C,1,0.0661,0.062,0.166,0.0297,0.2
FCGR2C,1,0.0747,0.225,0.54,0.0152,0.154

8 entries from above, arranged by “BNIP3 mRNA, set 1”, high to low.
gene symbol,reagent,"BNIP3L mRNA, set 1","NDRG1 mRNA, set 1","BNIP3 mRNA, set 1","ALDOC mRNA, set 1","ACSL5 mRNA, set 1"
CDKL5,1,0.0911,0.117,0.651,0.0191,0.122
ART3,1,0.165,0.401,0.488,0.0131,0.217
SCG2,1,0.11,0.184,0.407,0.0133,0.419
ATP4B,1,0.0889,0.131,0.319,0.0562,0.098
WWP2,1,0.0813,0.153,0.292,0.0108,0.113
MBNL1,1,0.0899,0.486,0.291,0.0143,0.0359
TBCK,1,0.07,0.0398,0.195,0.00285,0.139
SUV39H2,1,0.0804,0.787,0.187,0.0209,0.122

Next results follow:
gene symbol,reagent,"BNIP3L mRNA, set 1","NDRG1 mRNA, set 1","BNIP3 mRNA, set 1","ALDOC mRNA, set 1","ACSL5 mRNA, set 1"
GDF3,1,0.114,0.15,0.302,0.0305,0.264
CSH2,1,0.2,0.286,0.247,0.0571,0.163
FNBP1L,1,0.075,0.112,0.366,0.0211,0.244
SMARCAD1,1,0.0786,0.174,0.291,0.0257,0.191
LRPPRC,1,0.146,0.284,0.277,0.0119,0.439
ZNF324,1,0.123,0.627,0.358,0.0534,0.14
MEMO1,1,0.117,0.324,0.405,0.0225,0.259
RTL9,1,0.0518,0.203,0.258,0.0145,0.386
CARD14,1,0.0775,0.534,0.351,0.00688,0.327
BFSP1,1,0.116,0.234,0.242,0.0358,0.121
SLC35G5,1,0.395,0.195,0.453,0.0906,0.332
PSMC3IP,1,0.13,0.126,0.287,0.0252,0.141
LRP10,1,0.111,0.201,0.279,0.0161,0.187
SLC27A2,1,0.139,0.113,0.355,0.0635,0.194
S100A5,1,0.12,0.0622,0.276,0.019,0.0959
YAE1,1,0.142,0.268,0.406,0.06,0.484
PAQR3,1,0.12,0.134,0.342,0.0287,0.149
MPPED2,1,0.087,0.133,0.297,0.0132,0.163
KCNN3,1,0.131,0.221,0.272,0.0284,0.13
P2RX1,1,0.351,0.702,0.418,0.0262,0.245
OGFRL1,1,0.122,0.102,0.325,0.0435,0.155
C22orf46P,1,0.163,0.508,0.364,0.0507,0.309
ITM2C,1,0.109,0.796,0.292,0.073,0.159
EAPP,1,0.0696,0.023,0.346,0.0301,0.129
AGFG2,1,0.476,0.333,0.886,0.0911,0.164
